# Source: PubChem BioAssay AID1259415 (National Center for Advancing Translational Sciences (NCATS), 2018)
# Where “and” joins values, the source holds several entries; their conditions need not be identical. Equal values may be shown once. The whole screen tested about 410,000 compounds, of which about 18,000 (4.4%) were called active. The inconclusive results got no clear call from the source; some entries with a clear call stand among them for comparison. Rule as the data show it: active = activity change below about -60%; inconclusive = no clear call, values can overlap the other calls; inactive = above about -39%.
# Experiment: qHTS Assay for inhibitors of the human cytomegalovirus (HCMV)
# Conditions: HFF cells, HCMV-luciferase reporter, 72 h; at 57.5 µM; active compounds read low
# How it was run: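 Steps: HFFs plated, 16 h 37C; compounds added; HCMV-luciferase added to MOI 1 PFU/cell; 72 h 37C; OneGlo reagent, 5 min room temperature; luminescence read, normalized to controls.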
# % is scaled to controls: 0 for no effect and ±100 for the full control effect.
row,SMILES,"activity change, negative = inhibition"
1,CCc1nc(Sc2nc(C)cc(C)n2)c2oc3ccccc3c2n1,active: -86.4%
2,O=C(Nc1cccc(Br)c1)c1cccc(OC(=S)N2CCOCC2)c1,inconclusive: -43.4%
3,COc1ccc(/C=N/NC(=O)c2ccoc2C)cc1COc1c(C)cccc1C,active: -96.8%
4,CSc1ccc(CCNC(=O)c2ccc3c(c2)nc2n3CCC(C)C2)cc1 (stereo not drawn),inactive: -29.3%
5,CCOc1ccc(NC(=O)CCNc2c(N3CCCC3)c(=O)c2=O)cc1,active: -60.9%
6,Cc1ccc(S(=O)(=O)N2CCN(C(=O)Cn3nc(C)c([N+](=O)[O-])c3C)CC2)c(C)c1,inconclusive: -50%
7,NC(=O)c1cc(S(=O)(=O)Nc2cccc(Cl)c2)cs1,inconclusive: -49.4%
8,O=c1c2cn[nH]c2[nH]c(=S)n1-c1ccccc1Cl,inconclusive: -43%
9,O=C(CSc1ccc([N+](=O)[O-])cn1)Nc1ccc2[nH]c(=O)[nH]c2c1,inactive: -12.4%
10,CCC(=O)N1CCc2cc(Br)cc(S(=O)(=O)N3CCCC(C(=O)NC(C)(C)C)C3)c21 (stereo not drawn),inactive: -16.8%
11,O=C(NNc1ccc([N+](=O)[O-])cc1)C1CC1c1ccccc1 (stereo not drawn),inconclusive: -51.9%
12,CCOC(=O)N1CCc2c(sc3c2c(=O)n(CCc2ccccc2)c(=O)n3Cc2ccc(C)cc2C)C1,inconclusive: -41.5%
13,c1ccc(CNc2ncnc3[nH]ncc23)cc1,inconclusive: -42.6%
14,Cc1cccc(N2CCN(C(=O)CCNS(=O)(=O)c3ccc4c(c3)CCN4C(=O)C3CC3)CC2C)c1 (stereo not drawn),inconclusive: -52.5%
15,O=C(Nc1cccc2ccccc12)N1CCCN(c2c(Cl)cncc2Cl)CC1,inconclusive: -48.7%
16,CCN1CCN(C(=S)NC(C)c2ccccc2)CC1 (stereo not drawn),inconclusive: -40.5%
17,O=C(OCc1cn([C@@H]2C[C@H](c3ccccc3)N(C(=O)c3cccs3)C[C@H]2O)nn1)c1ccccc1,inactive: 19.2%
18,CC(=O)c1ccc(NC(=O)c2cn(C)c(=O)c3ccccc23)cc1,inactive: 24.3% and inactive: 25.2%
19,COc1ccc(C=C2C=C(C(C)(C)C)C(=O)C(C(C)(C)C)=C2)cc1OC,active: -98.6%
20,CC(OC(=O)Cc1cccc(C(F)(F)F)c1)C(=O)Nc1ccc(Cl)cn1 (stereo not drawn),inactive: 10.9%
21,O=c1c(Cl)c(N2CCNCC2)cnn1C12CC3CC(CC(C3)C1)C2,inconclusive: -56.6%
22,CCN1CCN(C(=O)C2CCC(=O)N(Cc3cccc(C(F)(F)F)c3)C2)CC1 (stereo not drawn),inconclusive: -42.5%
23,CCc1nccn1CCC(=O)N1CCCC(N2CCN(c3ccccc3C)CC2)C1 (stereo not drawn),active: -87.4%
24,CCc1ccc(N2CCN(C(=O)c3ccc(OC)c(OC)c3)CC2)cc1,inconclusive: -52%
25,O=C(NCc1ccccc1)C12CN(Cc3ccccc3)CC1C(c1ccc([N+](=O)[O-])cc1)=NO2 (stereo not drawn),inactive: 12.7%
26,CCCNC(=O)c1ccc(C)c(NC(=O)C2=C(C)OCCS2)c1,active: -77.2%
27,COc1ccccc1N1C(=O)c2cccc3c(C(=O)O)ccc(c23)C1=O,inactive: 12.5%

# Single values from the results shown.
# O=C(CSc1ccc([N+](=O)[O-])cn1)Nc1ccc2[nH]c(=O)[nH]c2c1 – activity change, negative = inhibition: inactive: -12.4%
# O=C(NCc1ccccc1)C12CN(Cc3ccccc3)CC1C(c1ccc([N+](=O)[O-])cc1)=NO2 (stereo not drawn) – activity change, negative = inhibition: inactive: 12.7%

# Continued.

row,SMILES,"activity change, negative = inhibition"
1,COc1cc(OC)cc(C(=O)NC(=S)Nc2nc(-c3cc4ccccc4o3)cs2)c1,inactive: -18.9%
2,Cc1[nH]n(-c2ccccc2)c(=O)c1/C=N/NC(=O)c1cccc(F)c1,active: -98.1%
3,O=C(CCN1CCCCC1)c1cccc(Cl)c1,inconclusive: -40%
4,O=C(Nc1ccc(F)cc1)N1CCCC(c2nc3c(nnn3Cc3ccccc3Cl)c(=O)[nH]2)C1 (stereo not drawn),inconclusive: -45%
5,COc1ccc(-c2csc3[nH]c(=S)n(-c4ccccc4)c(=O)c23)cc1OC,inactive: 7.38%
6,Cc1cccc(N2C(=O)NC(=O)/C(=C\c3cnc(-c4ccccc4)nc3)C2=O)c1,inactive: -10.3%
7,CN(C)c1nc(N/N=C/c2ccccc2O)nc(Nc2ccc(F)cc2)n1,inconclusive: -49.8%
8,COc1cc(/C=N/NC(=O)Cc2csc(C)n2)ccc1OCC(C)C,inconclusive: -40.2%
9,COC(=O)C1(C(=O)OC)C/C=C\CCN(S(=O)(=O)c2ccccc2[N+](=O)[O-])CC1,inactive: 17.6%
10,CCN(C(=O)c1cc(S(=O)(=O)N2CCCCC2)c[nH]1)c1ccc(OC)cc1,active: -85.1% and active: -66.7%
11,CC[C@H](C)[C@@H](CN[C@H](CCCCNC)CNC)NCC1CCCC1,inconclusive: -55.1%
12,CCCCN(CCCC)Cc1ccc(C(=O)NNC(=O)Nc2ccc(F)cc2)o1,inactive: 15.9%
13,O=C1NC(=O)/C(=C/c2ccccn2)S1,inactive: 30.1%
14,COc1ccc(-n2c(=O)c3c4c(sc3n(Cc3ccccc3)c2=O)CCC4)c(OC)c1,inconclusive: -54.9%
15,COc1ccc(N2CCN(CC(O)COc3ccc(C)c(C)c3)CC2)cc1 (stereo not drawn),inconclusive: -42.4%
16,Cc1ccc(-n2nc3c(=O)n(CC(=O)NCCc4ccc(Cl)cc4)nc(C)c3c2C)cc1,inconclusive: -54.9%
17,CCOc1ccccc1NC(=O)C(OC(=O)c1ccc(CC)cc1)c1ccccc1 (stereo not drawn),inconclusive: -44.4%
18,Cc1oc(-c2ccc(C(=O)N(C)Cc3ccccc3)cc2)nc1CN1CCc2ccccc21,inconclusive: -45.8%
19,CC12CCC(C(=O)N(CCCN3CCN(Cc4ccccc4)CC3)C1=O)C2(C)C (stereo not drawn),active: -90.3%
20,CCOc1ccc(NCc2cccn2-c2nnc(N3CCC(C(=O)NC(C)c4ccccc4)CC3)s2)cc1 (stereo not drawn),inconclusive: -51.7%
21,COc1ccc(CC(=O)N2CC3(C)CC2CC(C)(C)C3)cc1 (stereo not drawn),inconclusive: -58.8%
22,CCOc1ncc(S(=O)(=O)N2CCN(CC)CC2)cc1C(=O)O,inactive: 18.8%
23,Cn1cc(CN2CCCC(C(=O)c3ccc(-c4ccccc4)cc3)C2)cn1 (stereo not drawn),inactive: -18.4%
24,CCCCn1cnc2cc(NC(=O)c3cc(OC)c(OC)c(OC)c3)ccc21,inactive: 88.4%
25,CC(C)c1nnc(SCC(=O)NC(C)(C)C)n1C,inconclusive: -51.2%
26,CN1CCN(CCCNC(=O)c2ccc3c(=O)n(CCc4ccccc4)c(=O)[nH]c3c2)CC1,inactive: -18.6%
